Measurements reported in PubChem BioAssay AID504804 (Drosophila RNAi Screening Center, 2011)

Test: 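Knock-downs shielding fly cells from apoptosis caused by DNA damage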 (primary screen)
System: Drosophila Kc cells
Knock-down reagent: long dsRNA against Drosophila genes, 0.5 µg dsRNA per well
Time to read-out: 96 h (48 h knock-down, then 48 h drug)
Challenge: doxorubicin 5 µg/ml for 48 h, added 48 h after dsRNA
Read-out: 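Viability measured as cellular ATP by luminescence after 48 h knock-down then 48 h doxorubicin at 5 µg/ml; unnormalised plate counts for each replicate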
Direction: raw ATP luminescence: higher = more viable cells, protection from doxorubicin
Active means: 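Active when both duplicate wells lie at least 2 SD above the plate mean and protection is confirmed by rescreening and independent dsRNAs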
The screen tested about 19,000 reagents; shown is a random part of those that have a named target and a result. Of all reagents, 47 (0.25%) are marked active. 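Signals are raw, not normalised; exact z-scores behind calls not deposited; actives needed confirmation, so some wells reaching 2 SD are inactive.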 Reagents against one gene are numbered here.

| target gene | reagent no. | SD above plate mean | raw ATP luminescence, replicate 1 | raw ATP luminescence, replicate 2 | call |
| --- | --- | --- | --- | --- | --- |
| Neurochondrin | 1 | – | 47190 | 23403 | inactive |
| CG13991 | 1 | – | 24177 | 27637 | inactive |
| puml | 1 | – | 49263 | 85270 | inactive |
| pxb | 1 | – | 1.75e5 | 2.07e5 | inactive |
| pxb | 2 | – | 91450 | 69780 | inactive |
| pxb | 3 | – | 81260 | 53980 | inactive |
| Doc1 | 1 | – | 51943 | 60553 | inactive |
| CG33080 | 1 | – | 33320 | 37900 | inactive |
| CG33080 | 2 | – | 41710 | 46730 | inactive |
| CG33080 | 3 | – | 37310 | 54910 | inactive |
| CG4021 | 1 | – | 58293 | 62187 | inactive |
| CNT2 | 1 | – | 65800 | 48463 | inactive |
| CG6870 | 1 | – | 58947 | 65293 | inactive |
| CG31468 | 1 | – | 2.44e5 | 2.91e5 | inactive |
| CG14234 | 1 | – | 2.78e5 | 2.49e5 | inactive |
| CG14234 | 2 | – | 2.53e5 | 2.83e5 | inactive |
| CG7702 | 1 | – | 50953 | 54373 | inactive |
| CG14043 | 1 | – | 31157 | 38273 | inactive |
| CG17564 | 1 | – | 64373 | 64783 | inactive |
| Galphaf | 1 | at least 2 SD above plate mean | 95123 | 67170 | active |
| gl | 1 | – | 52640 | 75890 | inactive |
| Dhrs4 | 1 | – | 40580 | 31377 | inactive |
| CG3808 | 1 | – | 71640 | 57123 | inactive |
| CG13022 | 1 | – | 74710 | 61417 | inactive |
| ase | 1 | – | 45120 | 62440 | inactive |
| DCTN1-p150 | 1 | – | 31073 | 24580 | inactive |
| Mst84Dd | 1 | – | 57400 | 57200 | inactive |
| CG17104 | 1 | – | 98877 | 92580 | inactive |
| CG14196 | 1 | – | 3.63e5 | 3.50e5 | inactive |
| CG11307 | 1 | – | 24513 | 19830 | inactive |
| Hsp60C | 1 | – | 30977 | 27773 | inactive |
| CG6893 | 1 | – | 55677 | 53030 | inactive |
| CG15923 | 1 | – | 35840 | 37573 | inactive |
| Osi1 | 1 | – | 78090 | 67517 | inactive |

A few values from above.
For “raw ATP luminescence, replicate 2”, ase reads 62440
CG13022, raw ATP luminescence, replicate 2 = 61417
